These are literature values, as cited in patent US20100286079A1, “COMPOSITION COMPRISING COVALENT CONJUGATES OF CHITOSAN AND AN ACIDIC DRUG AND PARENTERAL ADMINISTRATION” (priority 2007, published 2010).

For this data set the following is noted: cited from earlier work.

On to `CC(C)Cc1ccc(C(C)C(=O)O)cc1` (stereo not shown) [Ibuprofen], for which the solubility in water entry is listed as “practically insoluble in water”.
